# The other results are listed elsewhere or left out.
# Amino acid sequences for entries named in this document (tags omitted). A change or cut given only in a name is not applied to a line headed by its entry.
# UniProt Q9UET6: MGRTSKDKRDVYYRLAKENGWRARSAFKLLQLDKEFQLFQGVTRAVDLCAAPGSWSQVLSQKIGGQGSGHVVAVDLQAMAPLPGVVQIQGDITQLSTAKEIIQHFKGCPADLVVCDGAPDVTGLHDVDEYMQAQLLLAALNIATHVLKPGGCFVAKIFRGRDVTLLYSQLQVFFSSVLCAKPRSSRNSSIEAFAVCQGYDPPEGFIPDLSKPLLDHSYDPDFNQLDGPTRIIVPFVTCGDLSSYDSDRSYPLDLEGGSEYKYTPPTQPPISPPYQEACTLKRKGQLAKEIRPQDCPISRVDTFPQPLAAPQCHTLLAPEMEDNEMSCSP
# UniProt Q9BQS8: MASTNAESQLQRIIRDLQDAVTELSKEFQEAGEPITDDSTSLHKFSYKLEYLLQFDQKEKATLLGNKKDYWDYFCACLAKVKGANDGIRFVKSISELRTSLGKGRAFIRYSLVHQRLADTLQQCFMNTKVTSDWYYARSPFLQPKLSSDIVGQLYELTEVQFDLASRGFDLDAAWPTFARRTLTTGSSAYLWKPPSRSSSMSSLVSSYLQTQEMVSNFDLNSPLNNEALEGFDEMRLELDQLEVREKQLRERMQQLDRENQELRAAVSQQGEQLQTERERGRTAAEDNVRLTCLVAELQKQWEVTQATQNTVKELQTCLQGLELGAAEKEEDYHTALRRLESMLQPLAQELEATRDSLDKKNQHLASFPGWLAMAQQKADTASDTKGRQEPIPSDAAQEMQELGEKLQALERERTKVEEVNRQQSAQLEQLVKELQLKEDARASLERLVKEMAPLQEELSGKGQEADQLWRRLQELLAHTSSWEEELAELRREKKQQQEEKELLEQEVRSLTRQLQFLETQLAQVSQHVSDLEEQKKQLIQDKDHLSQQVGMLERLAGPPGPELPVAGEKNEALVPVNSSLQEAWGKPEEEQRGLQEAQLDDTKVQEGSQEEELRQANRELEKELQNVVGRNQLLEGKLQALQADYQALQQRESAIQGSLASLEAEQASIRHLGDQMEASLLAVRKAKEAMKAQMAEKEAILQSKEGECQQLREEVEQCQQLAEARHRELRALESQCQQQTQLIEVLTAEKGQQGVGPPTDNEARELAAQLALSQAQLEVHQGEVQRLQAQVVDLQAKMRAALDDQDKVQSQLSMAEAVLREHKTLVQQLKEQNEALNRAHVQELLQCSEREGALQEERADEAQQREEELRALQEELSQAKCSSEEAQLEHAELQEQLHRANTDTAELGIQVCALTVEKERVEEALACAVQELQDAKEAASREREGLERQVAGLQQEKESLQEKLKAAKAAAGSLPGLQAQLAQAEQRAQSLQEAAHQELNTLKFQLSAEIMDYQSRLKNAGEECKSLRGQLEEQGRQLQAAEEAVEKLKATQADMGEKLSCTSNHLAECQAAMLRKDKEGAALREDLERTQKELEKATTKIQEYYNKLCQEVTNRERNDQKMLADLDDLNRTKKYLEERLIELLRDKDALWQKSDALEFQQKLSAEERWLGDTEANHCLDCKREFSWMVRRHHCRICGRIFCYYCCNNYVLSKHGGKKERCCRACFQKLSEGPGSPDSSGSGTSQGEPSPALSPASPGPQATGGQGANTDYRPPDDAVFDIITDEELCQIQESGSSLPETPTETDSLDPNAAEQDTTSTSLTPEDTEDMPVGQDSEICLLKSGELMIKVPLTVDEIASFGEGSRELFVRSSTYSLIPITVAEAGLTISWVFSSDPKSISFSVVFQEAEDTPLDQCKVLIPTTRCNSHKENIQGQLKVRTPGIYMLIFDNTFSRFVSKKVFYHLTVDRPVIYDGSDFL
# UniProt Q9UKT8: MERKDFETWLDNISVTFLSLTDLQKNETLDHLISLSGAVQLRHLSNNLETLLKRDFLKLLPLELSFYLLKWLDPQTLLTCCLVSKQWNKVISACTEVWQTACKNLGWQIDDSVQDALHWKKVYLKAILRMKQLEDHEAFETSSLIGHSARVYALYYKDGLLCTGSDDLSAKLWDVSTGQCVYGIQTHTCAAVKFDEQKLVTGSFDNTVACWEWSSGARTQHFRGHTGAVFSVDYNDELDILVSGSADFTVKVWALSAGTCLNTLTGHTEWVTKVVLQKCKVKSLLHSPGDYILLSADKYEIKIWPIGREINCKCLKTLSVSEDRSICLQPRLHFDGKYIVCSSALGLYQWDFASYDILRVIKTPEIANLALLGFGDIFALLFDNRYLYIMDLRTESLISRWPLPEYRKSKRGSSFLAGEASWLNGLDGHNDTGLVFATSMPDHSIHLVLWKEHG
# UniProt Q96K12: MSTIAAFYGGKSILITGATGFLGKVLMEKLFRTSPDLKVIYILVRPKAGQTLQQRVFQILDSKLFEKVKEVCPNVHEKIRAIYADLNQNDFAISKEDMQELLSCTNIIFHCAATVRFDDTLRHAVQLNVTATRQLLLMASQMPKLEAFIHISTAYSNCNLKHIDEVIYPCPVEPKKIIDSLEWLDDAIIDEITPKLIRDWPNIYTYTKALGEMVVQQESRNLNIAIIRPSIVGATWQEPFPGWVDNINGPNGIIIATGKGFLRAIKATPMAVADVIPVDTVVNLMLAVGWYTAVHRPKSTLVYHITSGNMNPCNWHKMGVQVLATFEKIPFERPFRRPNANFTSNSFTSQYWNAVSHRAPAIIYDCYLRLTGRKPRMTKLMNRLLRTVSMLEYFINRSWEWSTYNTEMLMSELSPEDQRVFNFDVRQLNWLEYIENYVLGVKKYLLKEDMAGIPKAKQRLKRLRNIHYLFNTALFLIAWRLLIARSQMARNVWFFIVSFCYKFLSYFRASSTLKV
# UniProt Q9BRT9, whole entry: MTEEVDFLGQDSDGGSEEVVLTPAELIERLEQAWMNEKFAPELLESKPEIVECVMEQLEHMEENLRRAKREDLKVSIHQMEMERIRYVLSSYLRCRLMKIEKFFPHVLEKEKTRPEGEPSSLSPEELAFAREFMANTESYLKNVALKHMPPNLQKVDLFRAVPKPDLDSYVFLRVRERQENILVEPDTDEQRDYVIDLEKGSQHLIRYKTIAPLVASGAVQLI
# UniProt P04406: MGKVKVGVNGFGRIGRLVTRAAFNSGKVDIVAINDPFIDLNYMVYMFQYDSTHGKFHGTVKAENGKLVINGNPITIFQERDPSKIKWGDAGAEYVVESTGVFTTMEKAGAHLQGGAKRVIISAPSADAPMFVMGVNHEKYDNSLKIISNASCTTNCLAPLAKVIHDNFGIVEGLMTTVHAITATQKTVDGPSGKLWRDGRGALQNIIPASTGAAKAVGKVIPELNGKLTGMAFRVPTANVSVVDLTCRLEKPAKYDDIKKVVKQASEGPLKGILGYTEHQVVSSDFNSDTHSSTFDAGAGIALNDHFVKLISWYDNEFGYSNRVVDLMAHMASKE
# UniProt P63096, whole entry: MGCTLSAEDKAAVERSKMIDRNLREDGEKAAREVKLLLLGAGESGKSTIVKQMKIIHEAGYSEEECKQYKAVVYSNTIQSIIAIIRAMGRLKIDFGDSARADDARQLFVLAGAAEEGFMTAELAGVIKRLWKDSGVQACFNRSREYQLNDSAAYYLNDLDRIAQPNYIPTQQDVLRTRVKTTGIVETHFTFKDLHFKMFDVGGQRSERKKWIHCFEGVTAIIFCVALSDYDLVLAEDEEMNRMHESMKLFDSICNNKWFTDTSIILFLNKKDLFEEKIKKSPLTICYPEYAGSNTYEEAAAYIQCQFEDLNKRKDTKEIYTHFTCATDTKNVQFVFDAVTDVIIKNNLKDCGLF
# UniProt Q96RP9: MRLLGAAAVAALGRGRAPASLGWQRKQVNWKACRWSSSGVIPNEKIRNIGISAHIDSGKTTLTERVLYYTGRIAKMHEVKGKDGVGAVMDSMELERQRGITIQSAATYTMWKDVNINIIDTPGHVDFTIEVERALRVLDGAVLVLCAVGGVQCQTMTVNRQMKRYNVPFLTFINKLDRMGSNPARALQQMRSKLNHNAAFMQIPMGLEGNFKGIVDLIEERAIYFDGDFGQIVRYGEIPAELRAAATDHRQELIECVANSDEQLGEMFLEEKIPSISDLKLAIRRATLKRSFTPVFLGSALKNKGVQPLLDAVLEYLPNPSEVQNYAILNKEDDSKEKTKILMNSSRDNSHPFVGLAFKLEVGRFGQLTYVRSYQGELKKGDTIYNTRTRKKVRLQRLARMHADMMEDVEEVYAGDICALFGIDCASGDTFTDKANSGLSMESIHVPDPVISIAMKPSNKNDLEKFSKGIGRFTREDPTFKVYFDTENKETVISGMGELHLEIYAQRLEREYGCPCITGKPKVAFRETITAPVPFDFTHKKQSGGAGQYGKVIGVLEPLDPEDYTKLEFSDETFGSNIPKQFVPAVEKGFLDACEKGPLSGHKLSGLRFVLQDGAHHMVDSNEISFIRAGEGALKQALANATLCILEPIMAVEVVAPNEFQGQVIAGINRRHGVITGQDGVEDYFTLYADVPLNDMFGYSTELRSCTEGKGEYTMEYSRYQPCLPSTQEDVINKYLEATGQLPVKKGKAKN
# UniProt O76003: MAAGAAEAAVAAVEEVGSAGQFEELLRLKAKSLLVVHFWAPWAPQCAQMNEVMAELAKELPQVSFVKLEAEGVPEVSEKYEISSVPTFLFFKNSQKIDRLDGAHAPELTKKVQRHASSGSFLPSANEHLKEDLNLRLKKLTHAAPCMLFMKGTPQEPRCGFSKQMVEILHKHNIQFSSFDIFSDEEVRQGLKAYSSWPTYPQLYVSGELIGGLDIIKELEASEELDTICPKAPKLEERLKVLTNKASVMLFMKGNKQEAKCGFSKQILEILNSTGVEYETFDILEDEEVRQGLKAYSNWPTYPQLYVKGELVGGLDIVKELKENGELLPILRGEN
# UniProt P30679: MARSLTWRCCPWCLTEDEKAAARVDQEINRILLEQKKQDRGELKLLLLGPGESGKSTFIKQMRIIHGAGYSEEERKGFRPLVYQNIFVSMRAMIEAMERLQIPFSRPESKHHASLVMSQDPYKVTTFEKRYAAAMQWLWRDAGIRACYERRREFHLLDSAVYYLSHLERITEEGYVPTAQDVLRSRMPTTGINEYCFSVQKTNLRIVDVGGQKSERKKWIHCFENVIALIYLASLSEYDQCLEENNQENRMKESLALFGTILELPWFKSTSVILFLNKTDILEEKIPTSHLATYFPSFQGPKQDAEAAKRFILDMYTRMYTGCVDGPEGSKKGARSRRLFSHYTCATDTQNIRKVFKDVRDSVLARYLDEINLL
# UniProt P63218: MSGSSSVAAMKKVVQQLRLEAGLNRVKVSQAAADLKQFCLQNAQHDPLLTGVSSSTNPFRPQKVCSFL
# UniProt Q10471: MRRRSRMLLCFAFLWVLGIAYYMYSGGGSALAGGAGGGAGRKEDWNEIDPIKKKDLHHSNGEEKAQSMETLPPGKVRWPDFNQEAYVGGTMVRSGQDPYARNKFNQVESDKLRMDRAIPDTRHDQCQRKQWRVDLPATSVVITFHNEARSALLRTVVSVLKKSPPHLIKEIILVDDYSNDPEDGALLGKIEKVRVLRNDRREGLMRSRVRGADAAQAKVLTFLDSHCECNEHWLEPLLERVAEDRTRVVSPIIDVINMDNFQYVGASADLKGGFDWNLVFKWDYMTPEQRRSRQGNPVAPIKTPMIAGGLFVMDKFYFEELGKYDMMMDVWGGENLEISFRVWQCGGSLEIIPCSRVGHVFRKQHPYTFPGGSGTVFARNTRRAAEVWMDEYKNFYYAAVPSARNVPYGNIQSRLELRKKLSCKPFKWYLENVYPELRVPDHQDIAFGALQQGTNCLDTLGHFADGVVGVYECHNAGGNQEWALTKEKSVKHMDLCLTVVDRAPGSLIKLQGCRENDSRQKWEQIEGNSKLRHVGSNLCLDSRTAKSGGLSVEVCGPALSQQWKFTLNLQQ
# UniProt P62942, whole entry: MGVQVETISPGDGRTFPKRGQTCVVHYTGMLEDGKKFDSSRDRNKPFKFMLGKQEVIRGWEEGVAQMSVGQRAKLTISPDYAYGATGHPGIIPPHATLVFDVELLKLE
# UniProt Q01167: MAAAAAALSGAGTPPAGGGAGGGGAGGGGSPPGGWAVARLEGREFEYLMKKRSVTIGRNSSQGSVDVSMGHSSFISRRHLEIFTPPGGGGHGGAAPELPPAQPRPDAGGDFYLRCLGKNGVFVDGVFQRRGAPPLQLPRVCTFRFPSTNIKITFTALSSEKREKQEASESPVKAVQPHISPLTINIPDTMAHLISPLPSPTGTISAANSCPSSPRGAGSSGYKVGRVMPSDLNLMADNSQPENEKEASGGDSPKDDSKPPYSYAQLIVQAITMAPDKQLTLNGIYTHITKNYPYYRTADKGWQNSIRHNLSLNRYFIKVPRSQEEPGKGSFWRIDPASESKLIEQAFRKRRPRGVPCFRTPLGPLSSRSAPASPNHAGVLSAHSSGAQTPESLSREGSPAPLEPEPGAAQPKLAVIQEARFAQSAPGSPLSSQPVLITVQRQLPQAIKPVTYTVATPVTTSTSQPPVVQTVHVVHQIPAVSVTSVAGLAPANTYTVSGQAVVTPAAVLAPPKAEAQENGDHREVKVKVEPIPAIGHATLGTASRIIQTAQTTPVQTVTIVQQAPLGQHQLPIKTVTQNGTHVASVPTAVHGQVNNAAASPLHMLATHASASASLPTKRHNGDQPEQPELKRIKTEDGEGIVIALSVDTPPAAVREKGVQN
# Compound: COc1ccc(Cn2ccc3cc(C)c(C(=O)NO)cc32)cc1
# Assay: dose-dependent thermal stabilisation call (2D-TPP, DLPTP, 10% FDR) (binary (1 = stabilised)); higher = stabilised by the compound
# Conditions: system: HL-60 intact cells; concentration range 0.04-10 µM
# Description: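 2D thermal proteome profiling in intact HL-60 cells treated with BRD-3811 (0, 0.04, 0.29, 2, 10 uM) for 90 min at 37 C, then heated 3 min at one of 12 temperatures (42-63.9 C). Soluble protein was quantified by TMT10 MS. The value is the DLPTP call of the paper: dose-dependent thermal stabilisation over all temperatures at 10% FDR (F-test of a dose-response against a flat model); one experiment, one call per tested protein.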
row,Target,dose-dependent thermal stabilisation call
1,FTSJ1 (UniProt Q9UET6),inactive: 0
2,FYCO1 (UniProt Q9BQS8),inactive: 0
3,FBXW2 (UniProt Q9UKT8),inactive: 0
4,FAM50A (UniProt Q14320),inactive: 0
5,FAR2 (UniProt Q96K12),inactive: 0
6,FLII (UniProt Q13045),inactive: 0
7,GNB1L (UniProt Q9BYB4),inactive: 0
8,GCC1 (UniProt Q96CN9),inactive: 0
9,GLT8D3 (UniProt Q4G148),inactive: 0
10,GINS4 (UniProt Q9BRT9),inactive: 0
11,GAPDH (UniProt P04406),inactive: 0
12,GNAI1 (UniProt P63096),inactive: 0
13,GFM1 (UniProt Q96RP9),inactive: 0
14,FBXO45 (UniProt P0C2W1),inactive: 0
15,GK5 (UniProt Q6ZS86),inactive: 0
16,GLRX3 (UniProt O76003),inactive: 0
17,GNA15 (UniProt P30679),inactive: 0
18,FER (UniProt P16591),inactive: 0
19,GNG5 (UniProt P63218),inactive: 0
20,GALNT2 (UniProt Q10471),inactive: 0
21,FAU (UniProt P62861),inactive: 0
22,FKBP1A (UniProt P62942),inactive: 0
23,FNDC3B (UniProt Q53EP0),inactive: 0
24,GCA (UniProt P28676),inactive: 0
25,FOXK2 (UniProt Q01167),inactive: 0
26,GHDC (UniProt Q8N2G8),inactive: 0
27,FARS2 (UniProt O95363),inactive: 0

# Exported as tab-separated lines: entries from further up
row	Target	dose-dependent thermal stabilisation call
18	FER (UniProt P16591)	inactive: 0
19	GNG5 (UniProt P63218)	inactive: 0

# — the supplement of paper PMC7666118
